Test results from the supplement of paper PMC11732987, “Enantioselective OTUD7B fragment discovery through chemoproteomics screening and high-throughput optimisation” (Communications Chemistry, 2025).
The list shows a part of the results. The data scatter; read single values as rough.

By UniProt entry, the sequences of proteins in these tests, tags left out. Where a name states a change or a piece, a line headed by the entry shows the natural chain unless it says otherwise.
UniProt Q9NP81: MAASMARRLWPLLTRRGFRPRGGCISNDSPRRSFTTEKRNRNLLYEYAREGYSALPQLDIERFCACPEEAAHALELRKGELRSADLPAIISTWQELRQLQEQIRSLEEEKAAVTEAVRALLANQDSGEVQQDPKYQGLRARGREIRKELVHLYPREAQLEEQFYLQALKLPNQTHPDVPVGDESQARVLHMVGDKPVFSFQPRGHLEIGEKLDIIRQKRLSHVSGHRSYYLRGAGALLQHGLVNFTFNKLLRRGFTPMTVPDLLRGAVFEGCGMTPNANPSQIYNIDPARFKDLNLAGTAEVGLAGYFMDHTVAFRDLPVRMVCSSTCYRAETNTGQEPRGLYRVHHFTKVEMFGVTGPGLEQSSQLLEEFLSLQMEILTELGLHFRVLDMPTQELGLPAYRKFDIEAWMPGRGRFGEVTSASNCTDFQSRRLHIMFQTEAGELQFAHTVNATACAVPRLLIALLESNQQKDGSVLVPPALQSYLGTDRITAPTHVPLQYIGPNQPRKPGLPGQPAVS

Each compound was assayed against SARS2 C425 (UniProt Q9NP81) (assay: log2 mean competition ratio of IA-DTB cysteine labelling (DMSO/compound) (log2 ratio); higher = stronger cysteine engagement by compound). Conditions: 50 µM; treatment time: 4 h; cell line lysate: HEK293T.
Description: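 IA-DTB competitive cysteine chemoproteomics in HEK293T RIPA lysate. Lysates were treated with compound 29 or 30 at 50 or 200 µM for 4 h, then IA-DTB (500 µM, 1 h), trypsin-digested, NeutrAvidin-enriched and analysed by diaPASEF. Competition ratio = intensity DMSO / intensity compound (n=4 treated, n=64 DMSO); binding: mean log2 CR ≥ 1 and p ≤ 0.05 plus QC filters. Target is the cysteine site.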
For `O=C(CCl)N[C@@H]1CCCc2ccccc21`, the “log2 mean competition ratio” value was -0.145. With `O=C(CCl)N[C@H]1CCCc2ccccc21` the “log2 mean competition ratio” value was 0.0812.

Same assay, conditions: 200 µM; treatment time: 4 h; cell line lysate: HEK293T
For `O=C(CCl)N[C@@H]1CCCc2ccccc21`, the “log2 mean competition ratio” value was 0.0494. With `O=C(CCl)N[C@H]1CCCc2ccccc21` the “log2 mean competition ratio” value was -0.184.
